Like-named read-outs stand apart in the source and are kept apart here. No constants are given. Whether binding was seen depends on the method and setting. Binding seen in cells or lysates may run through a third protein. Some binding calls cover weakened binding; strength is not graded here. Tags and fused reporters may be left off the sequences shown.
Experiments:
[1] = molecular target: T1, His-SMYD5 (human), from pCMV-6×His-SMYD5(human)-Neo (human) (UniProt Q6GMV2); experiment: co-IP; HEK293T cotransfected with the tagged plasmids, lysed in IP-RIPA buffer; lysates (500-1000 μg) immunoprecipitated with anti-His antibody overnight at 4 °C (IgG as control), Protein A/G PLUS-Agarose, washed three times with PBS, immunoblot
T1 sequence: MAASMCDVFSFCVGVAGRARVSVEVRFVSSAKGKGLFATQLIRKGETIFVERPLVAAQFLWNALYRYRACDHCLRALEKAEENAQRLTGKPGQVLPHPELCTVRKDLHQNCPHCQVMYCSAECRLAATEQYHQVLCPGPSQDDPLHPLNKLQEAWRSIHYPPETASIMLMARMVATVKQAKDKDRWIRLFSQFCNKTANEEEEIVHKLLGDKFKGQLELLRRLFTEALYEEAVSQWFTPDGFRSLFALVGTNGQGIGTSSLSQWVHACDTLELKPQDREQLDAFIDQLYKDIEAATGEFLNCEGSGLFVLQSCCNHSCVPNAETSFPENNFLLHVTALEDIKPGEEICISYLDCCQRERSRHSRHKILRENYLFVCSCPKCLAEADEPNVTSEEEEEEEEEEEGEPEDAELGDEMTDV

By UniProt entry, the sequences of proteins in these tests, tags left out.
UniProt Q12778: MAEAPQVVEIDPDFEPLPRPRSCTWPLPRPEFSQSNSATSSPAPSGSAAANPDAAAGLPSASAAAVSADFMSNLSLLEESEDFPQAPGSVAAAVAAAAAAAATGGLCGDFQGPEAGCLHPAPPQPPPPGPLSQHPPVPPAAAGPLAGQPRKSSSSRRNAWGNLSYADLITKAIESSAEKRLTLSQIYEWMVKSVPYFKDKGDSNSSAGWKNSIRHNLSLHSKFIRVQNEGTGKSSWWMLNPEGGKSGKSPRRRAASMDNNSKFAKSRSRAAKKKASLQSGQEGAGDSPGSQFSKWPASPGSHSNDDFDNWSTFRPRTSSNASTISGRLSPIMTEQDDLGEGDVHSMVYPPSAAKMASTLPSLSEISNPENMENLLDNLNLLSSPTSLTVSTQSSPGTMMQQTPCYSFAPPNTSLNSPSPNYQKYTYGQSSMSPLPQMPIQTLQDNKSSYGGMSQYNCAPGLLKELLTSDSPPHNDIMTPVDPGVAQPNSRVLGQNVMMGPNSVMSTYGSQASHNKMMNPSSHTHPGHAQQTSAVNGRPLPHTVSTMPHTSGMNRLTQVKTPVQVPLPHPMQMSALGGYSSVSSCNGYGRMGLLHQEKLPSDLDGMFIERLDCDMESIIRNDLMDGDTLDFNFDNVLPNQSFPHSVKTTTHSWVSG

[2] = molecular target: T1, His-SMYD5 (human), from pCMV-6×His-SMYD5(human)-Neo (human); experiment: as above; remark: listed apart in the source

Question: Which binding [1] does the source give for “HA-FoxO1 (human), from pCDNA3.1-FOXO1(human)-3×HA-SV40-Neo (from UniProt Q12778 1-655)” here?
Answer: binds

B1: Flag-HK2 (human), from pCMV-3×FLAG-HK2(human)-Neo (enzyme, UniProt P52789 1-917)
chain: MIASHLLAYFFTELNHDQVQKVDQYLYHMRLSDETLLEISKRFRKEMEKGLGATTHPTAAVKMLPTFVRSTPDGTEHGEFLALDLGGTNFRVLWVKVTDNGLQKVEMENQIYAIPEDIMRGSGTQLFDHIAECLANFMDKLQIKDKKLPLGFTFSFPCHQTKLDESFLVSWTKGFKSSGVEGRDVVALIRKAIQRRGDFDIDIVAVVNDTVGTMMTCGYDDHNCEIGLIVGTGSNACYMEEMRHIDMVEGDEGRMCINMEWGAFGDDGSLNDIRTEFDQEIDMGSLNPGKQLFEKMISGMYMGELVRLILVKMAKEELLFGGKLSPELLNTGRFETKDISDIEGEKDGIRKAREVLMRLGLDPTQEDCVATHRICQIVSTRSASLCAATLAAVLQRIKENKGEERLRSTIGVDGSVYKKHPHFAKRLHKTVRRLVPGCDVRFLRSEDGSGKGAAMVTAVAYRLADQHRARQKTLEHLQLSHDQLLEVKRRMKVEMERGLSKETHASAPVKMLPTYVCATPDGTEKGDFLALDLGGTNFRVLLVRVRNGKWGGVEMHNKIYAIPQEVMHGTGDELFDHIVQCIADFLEYMGMKGVSLPLGFTFSFPCQQNSLDESILLKWTKGFKASGCEGEDVVTLLKEAIHRREEFDLDVVAVVNDTVGTMMTCGFEDPHCEVGLIVGTGSNACYMEEMRNVELVEGEEGRMCVNMEWGAFGDNGCLDDFRTEFDVAVDELSLNPGKQRFEKMISGMYLGEIVRNILIDFTKRGLLFRGRISERLKTRGIFETKFLSQIESDCLALLQVRAILQHLGLESTCDDSIIVKEVCTVVARRAAQLCGAGMAAVVDRIRENRGLDALKVTVGVDGTLYKLHPHFAKVMHETVKDLAPKCDVSFLQSEDGSGKGAALITAVACRIREAGQR
Question: B1 was tested. Which binding [2] did it give?
Answer: binds

Source: publication PMC11959843
